Data: paper doi:10.1101/2025.04.29.651207
Results are given in words; binding and its absence hold for the method and conditions named. In cells and extracts the contact can be indirect. Some entries that bind do so weakly or less than the wild type. Where a sequence is shown, tags or fusion partners need not be part of it.

Sequences of proteins named here, by UniProt entry; tags and fusion partners are left off.
UniProt O94477: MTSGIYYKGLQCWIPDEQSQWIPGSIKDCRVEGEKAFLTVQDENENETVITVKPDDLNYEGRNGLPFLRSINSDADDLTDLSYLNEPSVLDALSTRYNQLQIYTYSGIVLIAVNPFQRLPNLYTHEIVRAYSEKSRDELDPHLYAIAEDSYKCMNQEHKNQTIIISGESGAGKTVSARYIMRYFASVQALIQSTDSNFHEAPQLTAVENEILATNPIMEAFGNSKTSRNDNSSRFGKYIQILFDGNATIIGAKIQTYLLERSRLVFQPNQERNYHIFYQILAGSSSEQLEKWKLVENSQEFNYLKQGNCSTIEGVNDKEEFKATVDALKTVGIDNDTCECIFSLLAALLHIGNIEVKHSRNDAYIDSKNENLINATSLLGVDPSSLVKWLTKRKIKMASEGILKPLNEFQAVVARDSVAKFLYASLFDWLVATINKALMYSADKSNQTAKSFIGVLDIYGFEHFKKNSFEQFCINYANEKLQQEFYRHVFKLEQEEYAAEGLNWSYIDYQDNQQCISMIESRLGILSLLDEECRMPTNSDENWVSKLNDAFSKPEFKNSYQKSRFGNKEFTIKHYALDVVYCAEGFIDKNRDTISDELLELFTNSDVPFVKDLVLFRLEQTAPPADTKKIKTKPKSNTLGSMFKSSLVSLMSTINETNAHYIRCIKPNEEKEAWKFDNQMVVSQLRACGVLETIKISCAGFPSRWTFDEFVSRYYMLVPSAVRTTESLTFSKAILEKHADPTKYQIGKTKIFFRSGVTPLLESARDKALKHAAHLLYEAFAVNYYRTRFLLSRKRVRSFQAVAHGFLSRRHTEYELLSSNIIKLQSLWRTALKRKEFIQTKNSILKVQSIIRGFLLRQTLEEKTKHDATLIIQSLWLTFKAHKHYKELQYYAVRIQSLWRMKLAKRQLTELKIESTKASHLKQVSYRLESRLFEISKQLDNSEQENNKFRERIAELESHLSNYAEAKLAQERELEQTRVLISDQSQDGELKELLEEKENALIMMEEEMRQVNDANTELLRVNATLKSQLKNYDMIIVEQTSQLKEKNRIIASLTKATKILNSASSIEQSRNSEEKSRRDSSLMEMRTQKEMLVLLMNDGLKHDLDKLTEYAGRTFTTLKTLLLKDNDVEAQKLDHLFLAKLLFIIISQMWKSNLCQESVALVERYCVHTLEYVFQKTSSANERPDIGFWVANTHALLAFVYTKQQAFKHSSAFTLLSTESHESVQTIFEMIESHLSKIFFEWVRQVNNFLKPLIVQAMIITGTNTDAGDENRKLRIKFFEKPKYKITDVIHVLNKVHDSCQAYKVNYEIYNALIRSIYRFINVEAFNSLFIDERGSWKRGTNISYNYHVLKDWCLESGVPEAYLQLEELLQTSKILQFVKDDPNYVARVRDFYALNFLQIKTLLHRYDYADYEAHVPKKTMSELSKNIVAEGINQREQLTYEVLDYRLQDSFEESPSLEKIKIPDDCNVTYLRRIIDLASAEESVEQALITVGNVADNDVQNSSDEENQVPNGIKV

Assays:
[1] = target: T1, Fus1-sfGFP (full-length formin Fus1) (S. pombe) (UniProt Q10719); assay: co-IP
T1 sequence: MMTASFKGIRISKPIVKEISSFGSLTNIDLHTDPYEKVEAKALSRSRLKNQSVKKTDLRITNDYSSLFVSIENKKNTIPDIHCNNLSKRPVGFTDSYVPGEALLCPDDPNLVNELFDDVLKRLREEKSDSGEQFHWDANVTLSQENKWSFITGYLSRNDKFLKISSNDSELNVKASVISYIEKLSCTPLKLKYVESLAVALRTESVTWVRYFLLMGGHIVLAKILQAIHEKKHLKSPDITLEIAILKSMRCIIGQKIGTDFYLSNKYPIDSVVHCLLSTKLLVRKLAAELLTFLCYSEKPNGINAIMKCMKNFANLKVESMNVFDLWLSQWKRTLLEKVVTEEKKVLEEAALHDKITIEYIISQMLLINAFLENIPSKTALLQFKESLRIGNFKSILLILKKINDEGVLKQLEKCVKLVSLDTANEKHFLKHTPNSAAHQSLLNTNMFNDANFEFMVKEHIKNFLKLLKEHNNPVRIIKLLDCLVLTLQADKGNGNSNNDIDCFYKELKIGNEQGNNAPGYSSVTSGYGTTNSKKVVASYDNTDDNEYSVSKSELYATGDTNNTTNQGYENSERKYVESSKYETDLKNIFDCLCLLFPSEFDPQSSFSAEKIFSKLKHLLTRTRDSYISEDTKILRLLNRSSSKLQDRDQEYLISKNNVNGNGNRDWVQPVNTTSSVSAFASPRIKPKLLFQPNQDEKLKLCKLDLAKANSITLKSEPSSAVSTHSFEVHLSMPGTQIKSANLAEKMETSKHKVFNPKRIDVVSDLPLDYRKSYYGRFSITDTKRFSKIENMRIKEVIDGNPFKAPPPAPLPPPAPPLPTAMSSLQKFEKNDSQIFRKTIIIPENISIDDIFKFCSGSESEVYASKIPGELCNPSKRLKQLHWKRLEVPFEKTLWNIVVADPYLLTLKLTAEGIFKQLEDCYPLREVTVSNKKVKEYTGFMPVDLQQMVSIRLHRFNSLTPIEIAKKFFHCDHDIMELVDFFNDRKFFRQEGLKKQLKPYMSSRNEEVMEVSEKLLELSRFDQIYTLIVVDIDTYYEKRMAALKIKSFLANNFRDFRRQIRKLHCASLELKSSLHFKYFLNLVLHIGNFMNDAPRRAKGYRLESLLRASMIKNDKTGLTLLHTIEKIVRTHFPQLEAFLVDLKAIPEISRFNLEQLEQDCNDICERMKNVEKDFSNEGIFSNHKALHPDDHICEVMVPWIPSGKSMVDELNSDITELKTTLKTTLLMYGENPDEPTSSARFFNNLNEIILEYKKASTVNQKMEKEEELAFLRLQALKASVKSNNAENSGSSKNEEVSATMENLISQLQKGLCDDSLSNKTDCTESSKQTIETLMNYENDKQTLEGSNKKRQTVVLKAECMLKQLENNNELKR

[2] = target: T2, Fus1^1-518-sfGFP (Fus1 N-terminus, aa 1-518) (S. pombe) (UniProt Q10719); assay: co-IP
T2 sequence: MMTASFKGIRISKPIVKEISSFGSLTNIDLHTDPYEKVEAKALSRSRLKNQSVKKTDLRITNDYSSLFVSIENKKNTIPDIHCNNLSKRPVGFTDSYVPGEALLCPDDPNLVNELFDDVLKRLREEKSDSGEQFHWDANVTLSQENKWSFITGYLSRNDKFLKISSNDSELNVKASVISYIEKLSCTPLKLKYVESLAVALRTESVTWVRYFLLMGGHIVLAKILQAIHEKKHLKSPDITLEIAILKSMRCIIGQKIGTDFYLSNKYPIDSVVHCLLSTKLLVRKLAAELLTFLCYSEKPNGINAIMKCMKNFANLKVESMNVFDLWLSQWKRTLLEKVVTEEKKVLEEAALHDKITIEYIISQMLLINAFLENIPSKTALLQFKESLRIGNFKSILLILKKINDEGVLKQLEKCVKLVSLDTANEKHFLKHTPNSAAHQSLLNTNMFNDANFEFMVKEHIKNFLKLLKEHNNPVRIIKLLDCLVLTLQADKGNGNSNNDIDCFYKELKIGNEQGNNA

- binding [1]: binds
- binding [2]: binds
Substance: Myo52-3xmyc (type V myosin Myo52) (from UniProt O94477 1-1516)
